Results from publication PMC4911930.
These are yes or no findings as the source states them, for the method shown. For part of these data: Binding seen in cells or lysates may run through a third protein.

Sequences of proteins named here, by UniProt entry; tags and fusion partners are left off. Residues count along the entry.
UniProt Q8N2Z9: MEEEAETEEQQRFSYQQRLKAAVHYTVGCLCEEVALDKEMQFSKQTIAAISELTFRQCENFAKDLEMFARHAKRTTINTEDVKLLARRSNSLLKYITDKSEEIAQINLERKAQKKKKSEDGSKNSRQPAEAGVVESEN
UniProt Q9Y5B9, residues 926-965: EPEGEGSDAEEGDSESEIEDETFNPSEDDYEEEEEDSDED

How the values were obtained:
[1] = molecular target: SSRP1 (human (endogenous in HeLa and U2OS)) (UniProt Q08945); test: co-IP; SSRP1 antibodies, low-salt and high-salt extracts of untagged U2OS cells; also asynchronous and S-phase-synchronized populations (Supplemental Fig. S3e)
CENP-S/-X = CENP-S/-X (UniProt Q8N2Z9); test: condition: 2.2 mM Spt16-CTD injected into 150 µM CENP-S/-X; ITC; Spt16-CTD (amino acids 926–965; 2.2 mM) injected into 200 µL of 150 µM CENP-T/-W, human H2A/H2B or CENP S/X; 20°C; 20 mM Tris pH 7.5, 0.2 M NaCl; single-site model for CENP-T/-W, two-site model for H2A/H2B; both purified

Substance | binding [1] | binding (CENP-S/-X)
CENP-S (from UniProt Q8N2Z9 1-138) | no binding | –
CenH3^CENP-A (from UniProt P49450 1-140) (other; other documents disagree on this pair) | no binding | –
Spt16-CTD (Spt16 amino acids 926–965) (from UniProt Q9Y5B9 926-965) (domain or fragment) | – | no binding
